# Assay results reported in PubChem BioAssay AID1347076 (National Center for Advancing Translational Sciences (NCATS), 2019).
# The whole screen tested about 400,000 compounds, of which about 13,000 (3.2%) were called active. The inconclusive results got no clear call from the source; some entries with a clear call stand among them for comparison. The call rests on the fitted dose curve; in most records, active means well fitted cell-killing curve with a large enough effect; inconclusive means small, poorly fitted or top-dose-only effect, or effect the other way; inactive means flat fitted curve, though single readings scatter. A potency beside an inconclusive call is a rough fit, not a confirmed value.
# Assay: qHTS assay for MDR1-selective chemotherapeutics: Primary screen using the drug-selected MDR subline cells KB-V1; further: nearly all actives have a fitted effect of over 60% in size
# Settings: KB-V1 MDR cells viability, CellTiter-Glo, 72 h; activity change, negative = cytotoxicity: at 46.1 µM (top of the series)
# Procedure, shortened: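 Readout: CellTiter-Glo luminescence, 10 min after addition. Cells: KB-V1 MDR subline, 72 h at 37 degrees C with compound. Analysis: corrected, normalized data fitted to concentration-effect curves.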
# On the % scale 0 is the no-effect control and ±100 the full control effect; potency means the concentration at half of the fitted maximal effect.
Structure (SMILES),Potency,"activity change, negative = cytotoxicity"
Cc1ccc(CN2CC(C(=O)N3CC=C(c4ccccc4)CC3)CC2=O)cc1 (configuration not stated),"inconclusive: 20.6 µM [cytotoxic, single point]",–
COc1cccc(/C=N/n2c(COc3ccccc3)n[nH]c2=S)c1,"inconclusive: 23.1 µM [rising, partial curve, poor fit]",–
CS(=O)(=O)Nc1cccc(-c2cnc3ccccc3n2)c1,–,inactive: -11%
Cn1nc(C(F)(F)F)c(-c2ccc(F)cc2)c1NC(=O)c1cccnc1,"inconclusive: 29.1 µM [cytotoxic, single point]",–
CC(OC(=O)c1cccc(O)c1)C(=O)N(C)Cc1ccccc1 (configuration not stated),"inconclusive: 11.6 µM [cytotoxic, partial curve, poor fit]",–
Cc1ccnc(NC(=O)c2ccc3c(c2)OCO3)c1,active: 18.4 µM,–
COc1ccc(NC(=S)NNc2ccc([N+](=O)[O-])cc2S(=O)(=O)Nc2ccc(C)cc2C)cc1,"inconclusive: 29.1 µM [cytotoxic, single point]",–
CCN(CC)CCN(Cc1cc2cccc(C)c2[nH]c1=O)C(=S)Nc1ccccc1,–,inactive: -15.2%
Cc1ccccc1C(=O)Nc1ccc(S(=O)(=O)Nc2onc(C)c2C)cc1,"inconclusive: 2.59 µM [rising, full curve, poor fit]",–
CCC(Sc1nnc2c(n1)[nH]c1ccccc12)C(=O)Nc1ccccc1OC (configuration not stated),"inconclusive: 0.651 µM [cytotoxic, full curve]",–
OCCNc1ncnc2c1sc1nc(N3CCOCC3)c3c(c12)CCC3,"inconclusive: 13 µM [cytotoxic, partial curve]",–
CCc1ccccc1S(=O)(=O)Cc1ccc(C(=O)NCCc2ccc(C)cc2)o1,"inconclusive: 25.9 µM [cytotoxic, single point]",–
O=C(CCNC(=O)OCc1ccccc1)NC1CCCCCC1,"inconclusive: 29.1 µM [cytotoxic, single point]",–
N#CC1=C(N)C(C#N)(C#N)C(c2cccnc2)C2CN(C(=O)OCc3ccccc3)CC=C12 (configuration not stated),"inconclusive: 25.9 µM [cytotoxic, single point]",–
O=C(CN1C(=O)c2ccccc2S1(=O)=O)Nc1ccc(S(=O)(=O)Nc2ncccn2)cc1,–,inactive: -10.2%
CC(=O)c1ccc(N(CC(=O)NC2CCCC2)C(=O)c2csnn2)cc1,–,inconclusive: 21.1%
Cc1ccc(C)c(S(=O)(=O)N2CCN(C(=O)c3cnccn3)CC2)c1,"inconclusive: 35.5 µM [cytotoxic, single point]",–
CCc1ccc(-n2nc(C)c3c(C)cc(=O)n(CC(=O)Nc4cc(C)ccc4C)c32)cc1,–,inactive: 9.43%
CCOC(=O)c1c(-c2ccccc2)oc2ccc(O)c(CN3CCOCC3)c12,"inconclusive: 11.6 µM [cytotoxic, partial curve, poor fit]",–
Cc1c(C(=O)OCC2CCCCC2)[nH]c2c1C(=O)CC(c1ccccc1Cl)C2 (configuration not stated),"inconclusive: 3.26 µM [cytotoxic, full curve, poor fit]",–
COC(=O)c1ccc(C(C(=O)NC2CCCCC2)N(C(=O)Cc2cccs2)C2CC2)cc1 (configuration not stated),"inconclusive: 11.2 µM [cytotoxic, partial curve]",–
O=C(CNCC1CCCO1)Nc1ccccc1N1CCCCCC1 (configuration not stated),active: 6.51 µM,–
Cc1cccc(C)c1NC(=O)COC(=O)C1Cc2ccccc2CN1C(=O)c1ccccc1 (configuration not stated),active: 8.2 µM,–
Cc1nc(N)sc1C(=O)NN,–,inactive: 6.4%

Structure (SMILES),Potency,"activity change, negative = cytotoxicity"
Cc1ccc(N2C(=O)c3n[nH]c(C)c3C2c2ccccc2Cl)cc1 (configuration not stated),"inconclusive: 29.1 µM [cytotoxic, single point]",–
CC(C)S(=O)(=O)N1CCCC(C(=O)c2cccc(Cl)c2)C1 (configuration not stated),"inconclusive: 29.1 µM [cytotoxic, single point]",–
CSCCC(NC(=O)COc1ccccc1)C(=O)N1CCCC(C(F)(F)F)C1 (configuration not stated),"inconclusive: 7.31 µM [cytotoxic, partial curve]",–
CO/N=C(\c1nonc1N)N1CCN(c2ccc(Cl)cc2[N+](=O)[O-])CC1,"inconclusive: 13 µM [cytotoxic, partial curve]",–
CCN(CC(=O)NCc1cccs1)C(=O)/C=C/c1cc(Br)ccc1OC(F)F,–,inactive: 4.26%
CCCCC(=O)Nc1cc(C(=O)NCCc2ccccc2)ccc1Cl,"inconclusive: 16.4 µM [cytotoxic, partial curve]",–
Cc1ccc(-c2csc(/C(C#N)=C/Nc3ccc4c(c3)OCCO4)n2)cc1,–,inactive: 0%
N#Cc1c(NC(=O)CN2CCN(C(=O)c3ccco3)CC2)sc2c1CCCCC2,"inconclusive: 29.1 µM [cytotoxic, single point]",–
COC(=O)C1=C(C(=O)OC)[C@@H]2N(C)c3ccccc3[C@@]23C[C@@H](C(=O)OC)N(C(=O)c2ccc(Br)cc2)C3=N1,"inconclusive: 18.4 µM [cytotoxic, single point]",–
CC12CCC(C(=O)Nc3ccccc3Br)(C/C1=N\O)C2(C)C (configuration not stated),"inconclusive: 20.6 µM [cytotoxic, partial curve]",–
CCc1c(C)nc2c(-c3ccccc3OC)c(C)[nH]n2c1=O,–,inactive: 13.8%
COC(=O)Cc1c(C)c2ccc(OC3CCCCC3=O)cc2oc1=O (configuration not stated),"inconclusive: 6.51 µM [cytotoxic, full curve]",–
COC(=O)c1c(NC(=O)CS(=O)(=O)c2ccccc2)sc(C)c1C,–,inactive: -14.1%
Cc1ccc(C)c(NC(=S)Nc2ccc(S(=O)(=O)Nc3ncccn3)cc2)c1,–,inactive: 15.3%
CCn1c(SC(=O)NC2CCCCC2)nnc1-c1cccs1,"inconclusive: 29.1 µM [cytotoxic, single point]",–
Cc1ccc(-c2ccc(SCC(=O)Nc3nonc3C)nn2)cc1,–,inactive: -27.4%
CCN(CC)CCCNc1ncnc2scc(-c3ccc(F)cc3)c12,"inconclusive: 5.8 µM [cytotoxic, partial curve, poor fit]",–
O=C(CN1C(=O)S/C(=C\C=C\c2ccccc2)C1=O)NC1CCS(=O)(=O)C1 (configuration not stated),"inconclusive: 10.3 µM [rising, partial curve]",–
COc1cc2ccccc2cc1C(=O)N1CCCC(C(F)(F)F)C1 (configuration not stated),active: 14.6 µM,–
CSc1ccccc1NC(=O)Nc1ccc(F)c(Cl)c1,active: 20.6 µM,–
Cc1ccc(C)c2c1[nH]c1ccc([N+](=O)[O-])cc12,active: 8.2 µM,–
Cc1ccc(Nc2nc(N)nc(COC(=O)C3=COCCO3)n2)cc1,–,inactive: 0%
O=C(NC(=S)Nc1ccccc1Cl)C1CC1,–,inactive: -1.76%
NC(=O)c1ccc(NC(=O)COC(=O)/C=C/c2cn(-c3ccccc3)nc2-c2cccnc2)cc1,–,inactive: -3.71%

# Sorted by molecular weight (descending): part of the list above.
Structure (SMILES),Potency,"activity change, negative = cytotoxicity"
COC(=O)C1=C(C(=O)OC)[C@@H]2N(C)c3ccccc3[C@@]23C[C@@H](C(=O)OC)N(C(=O)c2ccc(Br)cc2)C3=N1,"inconclusive: 18.4 µM [cytotoxic, single point]",–
CCCCC(=O)Nc1cc(C(=O)NCCc2ccccc2)ccc1Cl,"inconclusive: 16.4 µM [cytotoxic, partial curve]",–
Cc1ccc(-c2ccc(SCC(=O)Nc3nonc3C)nn2)cc1,–,inactive: -27.4%
Cc1ccc(N2C(=O)c3n[nH]c(C)c3C2c2ccccc2Cl)cc1 (configuration not stated),"inconclusive: 29.1 µM [cytotoxic, single point]",–

# Remaining list, next part.

Structure (SMILES),Potency,"activity change, negative = cytotoxicity"
CCOCCCn1c(SCC(=O)Nc2ccc3[nH]c(=O)[nH]c3c2)nc2ccccc2c1=O,–,inactive: 6.2%
CCCCCCCCCCCCCCCCCCN(CCCCCCCCCCCCCCCCCC)c1ccccc1,–,inactive: 0.193%
Cc1cccc(-c2nc(CSCC(=O)N3CCN(c4ccccn4)CC3)c(C)o2)c1,"inconclusive: 29.1 µM [cytotoxic, single point]",–
Cc1ccc(S(=O)(=O)NCCNS(=O)(=O)c2ccc(C)cc2)cc1,–,inactive: 15.8%
Cc1nnsc1C(=O)Oc1ccc(Cl)cc1,–,inactive: -3.95%
O=C(Nc1ccccc1Cl)N1CCN(C/C=C/c2ccccc2)CC1,"inconclusive: 18.4 µM [cytotoxic, single point]",–
O=C(Nc1nccs1)[C@@H]1CC=C[C@@H]2CCN(Cc3ccc(Cl)c(Cl)c3)C(=O)[C@@H]21,"inconclusive: 4.11 µM [cytotoxic, full curve]",–
O=C(c1c(F)cccc1F)N1CCN(S(=O)(=O)c2ccc3c(c2)OCCO3)CC1,–,inactive: 0%
O=C1C(=C(c2ccccc2)c2ccccc2)Nc2ccccc21,"inconclusive: 18.4 µM [cytotoxic, single point]",–
CC(=O)Nc1cccc(-c2cc(NC(C)=O)c3ncc(-c4ccc(C(C)=O)cc4)n3c2)c1,–,inactive: 5.41%
O=C(Nc1cccc(-c2cccc(Cl)c2)c1)C1CCN(Cc2ccon2)CC1,–,inactive: -22.1%
CC(=O)Nc1ccc(S(=O)(=O)NC(C(=O)O)C(C)O)cc1 (configuration not stated),"inconclusive: 8.2 µM [rising, partial curve]",–
O=C(CSc1nnnn1-c1cccc2ccccc12)Nc1ccc(N2CCOCC2)c(Cl)c1,"inconclusive: 3.66 µM [cytotoxic, full curve]",–
Cc1cccc(C(=O)OCC(=O)Nc2sccc2C(N)=O)c1C,–,inactive: 1.57%
O=C(CSc1nc2c([nH]c3ccccc32)c(=O)n1-c1cccc(Cl)c1)c1ccccc1,"inconclusive: 0.0082 µM [cytotoxic, full curve]",–
CC(C)C(=O)NCC(c1ccc2c(c1)OCO2)N1CCOCC1 (configuration not stated),"inconclusive: 18.4 µM [rising, single point]",–
CSc1ccccc1NC(=O)CN(C)CC(=O)Nc1c(F)cccc1F,"inconclusive: 20.6 µM [cytotoxic, partial curve, poor fit]",–
COc1ccc(C=C2CS(=O)(=O)CC(=Cc3ccc(OC)cc3)C2=O)cc1,"inconclusive: 2.91 µM [cytotoxic, partial curve, poor fit]",–
COc1cccc(C(=O)NCCS(=O)(=O)N(C)C2CCCCC2)c1,active: 11.6 µM,–
Cc1cccc(C(=O)NC2CC3CCCC(C2)N3S(=O)(=O)c2ccccc2)c1 (configuration not stated),"inconclusive: 0.116 µM [cytotoxic, full curve, poor fit]",–
COc1ccccc1C(=O)COC(=O)c1nc(Cl)ccc1Cl,"inconclusive: 29.1 µM [rising, single point]",–
O=C(NC(=S)Nc1ccc(N2CCOCC2)cc1)c1cccc(Cl)c1Cl,–,inactive: -18%
CN(Cc1ccc2c(c1)CCCN2C)C(=O)[C@H]1O[C@@H](n2cnc3c(N)ncnc32)[C@H](O)[C@@H]1O,–,inactive: 10.8%
O=C(Nc1ccc2c(c1)OCO2)C1CC1,–,inactive: 3.01%
